The values are deposited in ChEMBL (CHEMBL3988442, “University of Dundee, Small-Polar-MMV Screening Library” (2021)).

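Viability assay of Plasmodium falciparum sporozoites; the read-out is not stated. The concentration is filed as 10 mM, unlikely as a test dose, so the dose is not known. Higher reads as lower viability (inferred: compounds with an IC50 in retests scored well above the rest). Strong results were mostly tested again. Of about 34,000 compounds tested this way, about 280 (0.84%) reached 50% or more in at least one test.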

Values are the deposited “Percent Effect”, in %.
The controls that fix the scale are not given in the record; negative values are as filed.
This is an unselected part of the compounds tested.
Two or more numbers in one place are separate tests of the same structure; such repeats can differ widely.

| compound | percent effect |
|---|---|
| `CN1CCC(Cc2cnc(CNC(=O)Cc3cccc(F)c3)cn2)CC1` | 4.427% |
| `O=C(NCCc1ccc(Cl)cc1)c1coc(CN2CCOCC2)c1` | -30.12% |
| `CCOC1COC2(CCN(Cc3ccco3)CC2)C1.O=C(O)C(F)(F)F` (stereo not shown) | 4.962% |
| `Cc1ccc(C)c(S(=O)(=O)CCNC2CCc3ncnn3C2)c1` (stereo not shown) | -8.71% |
| `CN1CCc2c(C#N)c(NCCCO)n3cnnc3c2C1` | -4.087% |
| `COc1ccccc1CN1CC[C@]2(C[C@@H](OC)CO2)C1.O=C(O)C(F)(F)F` | -25.19% & -20.48% |
| `COc1ccccc1-c1nccnc1C1CCN(C(C)=O)CC1` | 8.861% |
| `COc1ccc(N(c2ccc(C)cc2)c2ccc(C(=O)O)s2)cc1` | 14.64% |
| `CC(NC(=O)N(C)Cc1ccc(Cl)s1)c1ccccn1` (stereo not shown) | -10.5% |
| `COc1cccc(OC)c1-c1ccnc2cc(CC(=O)NC(C)C)nn12` | -1.101% |
| `CN(CC(=O)Nc1nncs1)CC1CCCN1c1cccnn1` (stereo not shown) | 11.96% |
| `CCOCC1CN(C(=O)Cc2ccccn2)Cc2cnn(CC)c21` (stereo not shown) | -5.589% |
| `Cc1nc(C)n(CC2CN(c3ncnc4[nH]ccc34)CCO2)n1` (stereo not shown) | -2.864% |
| `[H][C@]12CCN(C(=O)NC3CCCC3)CC[C@@]1([H])S(=O)(=O)N(C)C2` | -10.09% |
| `CN(Cc1cccnc1)C1CC2(CCN(Cc3ccccn3)CC2)C1.O=C(O)C(F)(F)F.O=C(O)C(F)(F)F.O=C(O)C(F)(F)F` | -2.835% |
| `CCN(CC)C(=O)c1nnn(-c2ccc(C)cc2)c1C1CC1` | 9.273% |
| `COc1ccc(Cl)cc1CS(=O)(=O)CC(=O)N(C)Cc1ccccc1F` | -9.81% |
| `CCOc1ccc(-c2nc(C(=O)NCC3CCOC3)cs2)cc1` (stereo not shown) | 3.578% |
| `Nc1ncc(-c2cccc(NC(=O)[C@@H]3CCCCN3)c2)cn1` | -1.778% |
| `Cc1cccc(CN2CCOCC2c2[nH]ncc2C)n1` (stereo not shown) | -4.491% |
| `O=C(O)C(F)(F)F.[H][C@@]12COC[C@]1(CNC(=O)COC)CN(Cc1ccc3c(c1)OCO3)C2` | -0.6751% |
| `Cc1ccc(CN2CCCC3(CCCC(=O)N3)C2)s1.O=C(O)C(F)(F)F` (stereo not shown) | 7.87% |
| `O=C(Cc1ccc2c(c1)OCCO2)N1CCN(c2cnccn2)CC1` | -87.1% |
| `CN(CCn1cccn1)c1cc(C(F)(F)F)nc(-c2cccnc2)n1` | -20.8% |
| `CCN1CCC2(C1)CN(S(=O)(=O)c1cn(C)cn1)C2.O=C(O)C(F)(F)F.O=C(O)C(F)(F)F` | 5.738% |
| `O=C(O)C(F)(F)F.[H][C@]12CCN(Cc3c(C)noc3C)[C@@]1([H])CC[C@H](COCC(C)C)O2` | -6.818% |
| `CCn1cc(-c2n[nH]c(=O)n2-c2ccc3c(c2)OCO3)c(C)n1` | 0% |
| `CC(OCC(F)(F)F)C(=O)N1CCN(S(C)(=O)=O)CC1` (stereo not shown) | -7.202% |
| `CC(=O)N1CCC2(CCN(C(=O)c3ccc(F)c(C(F)(F)F)c3)C2)C1` (stereo not shown) | -5.109% |
| `Cc1cc(CN2CCC(N(C)Cc3nnc(C4CC4)n3C)C2)on1` (stereo not shown) | 8.651% |
| `CCCc1nc(C)c(C(=O)NC2CCN(C3CC3)C2)s1` (stereo not shown) | 9.769% |
| `Cc1nn(C)c(C)c1C(=O)NCc1ccnc(OCC(F)(F)F)c1` | -0.4965% |
| `Cc1ccc(C(=O)N2CCC3(CC2)NC(=O)CC3c2ccccc2)cn1.O=C(O)C(F)(F)F` (stereo not shown) | -15.04% |
| `CS(=O)(=O)NCc1cncc2c1CCN(C(=O)N1CCCC1)C2.Cl` | 5.565% |
| `CC1CCCN(C(=O)c2cccc(CS(C)(=O)=O)c2)C1` (stereo not shown) | 15.3% |
| `c1cnn(CC2CCCCN2Cc2nc(-c3ccsc3)no2)c1` (stereo not shown) | 21.29% |
| `CCc1cc(NC(=O)c2cccc(OCC(F)(F)F)n2)[nH]n1` | -16.97% |
| `COC(=O)CN(Cc1ccccc1C)C(=O)CCNC(=O)C(C)(C)C` | 15.68% |
| `COCc1nn(CC2CC2)c2c1CN(Cc1cccs1)CC2.O=C(O)C(F)(F)F` | 5.475% |
| `O=C1COc2ccc(C(=O)NS(=O)(=O)c3ccc(F)cc3F)cc2N1` | -2.363% |
| `CCc1nc(CN2CCOC(Cn3cncn3)C2)no1` (stereo not shown) | 9.955% |
| `CCC(C)[C@H](N)c1nnc(SCC(=O)Nc2cc(C)ccc2C)o1.Cl` (stereo partly shown) | -10.81% |
| `Cc1nc2cc(-c3nccn3C)nn2c(N2CCCC2)c1C` | 12.19% |
| `Cc1nn(C)c2ncnc(N3CCCC(C)(O)C3)c12` (stereo not shown) | -24.77% |
| `Cc1cc(CNc2ccccc2Cl)no1` | 2.963% |
| `CCOCC1CN(C(=O)c2cscn2)Cc2cnn(CC3CC3)c21` (stereo not shown) | 11.53% |
| `CCc1c(C)nc2cc(C3CCN(Cc4ccncc4C)C3)nn2c1O` (stereo not shown) | 16.94% |
| `CCOCCCNC(=O)C(NC(=O)Cc1cccs1)c1ccccc1` (stereo not shown) | 4.087% |
| `[H][C@]12CC[C@](O)(CC1)C(COC)N2C(=O)c1ccco1` (stereo partly shown) | -33.24% |
| `O=C1CCCN1Cc1nnc2n1CCCN(C(=O)c1ccco1)C2` | 16.12% |
| `CCS(=O)(=O)N1CCCn2c(nc(CN3CCCC3)cc2=O)C1` | 4.195% |
| `O=C(O)C(F)(F)F.[H][C@@]12CCN(c3ccc(C)cc3)C[C@@]1([H])O[C@@H](C(=O)NCc1ccco1)C2` | 7.757% |
| `CCCc1nc(C(C)(C)NC(=O)C2CC(=O)N(CC(C)C)C2)no1` (stereo not shown) | 3.873% |
| `COc1ccc(Br)c(C(=O)N2CCC(c3n[nH]c(C4CC4)n3)CC2)c1` | -10.02% |
| `CCn1nc2c(cc1=O)CN(CC(=O)Nc1nc(C)c(C)s1)CC2` | -0.1778% |
| `CCc1[nH]ncc1C(=O)N1CCCC(n2cccn2)C1` (stereo not shown) | -30.15% |
| `CCn1nc(Br)nc1Sc1ccccc1NC(C)=O` | 4.566% |
| `Cc1ccccc1CNc1nc(O)cc(C2CC(=O)N(C)C2)n1` (stereo not shown) | -11.02% |
| `CC(C)c1noc(CCCC(=O)N2CCN(Cc3ccncc3)CC2)n1` | 9.128% |
| `CC(C)OCCCNC(=O)CS(=O)(=O)Cc1cccc(Cl)c1` | 6.921% |
| `Cc1ccc(C)c(CS(=O)(=O)CC(=O)Nc2ccc(F)cc2F)c1` | -8.324% |
| `Cc1ccc(OCC(O)Cn2ncc3cnn(C)c(=O)c32)cc1` (stereo not shown) | -17.37% |
| `COc1ccc(C(=O)N2CCCS2(=O)=O)cc1` | 7.164% |
| `COc1cc(C(=O)N(Cc2cccs2)C2CC2)cc2c1OCCO2` | -975.5% |
| `Cc1cnn(CC2CCCN2C(=O)c2cc(Cl)ccc2F)c1` (stereo not shown) | -0.5333% |
| `Cc1cnc(CN2CCN(C(C)c3nc(C4CC4)no3)CC2)cn1` (stereo not shown) | 2.057% |
| `CCN1C(=O)CCC12CCCN(Cc1ccc(F)cc1)CC2.O=C(O)C(F)(F)F` (stereo not shown) | 1.083% |
| `CC(C)(C(=O)NCc1ccccc1F)n1cc(Br)cn1` | -19.2% |
| `CN1C(=O)C2(CCN(CC3CCC3)C2)c2ccccc21.O=C(O)C(F)(F)F` (stereo not shown) | 10.61% |
| `CCCc1ccc(C(=O)N2Cc3c(Cn4ccnc4)nn(C)c3C2)cc1.O=CO` | -3.559% |
| `O=C(O)C(F)(F)F.O=C(O)C(F)(F)F.[H][C@@]12COC[C@@H](CC(=O)N3CCOCC3)[C@]1([H])CN(Cc1ccncc1)C2` | -9.649% |
| `CCCS(=O)(=O)N1CCOC2(CCCN(Cc3ccccn3)C2)C1.O=C(O)C(F)(F)F` (stereo not shown) | 6.239% |
| `Nc1nccnc1C1CN(C(=O)c2ccc3c(c2)OCO3)CCO1` (stereo not shown) | -4.713% |
| `CCc1noc(C2CCCCN2C(=O)c2ccoc2C)n1` (stereo not shown) | 12.5% |
| `[H][C@@]12OCCN(C(=O)COc3ccccc3)[C@@]1([H])CC[C@@H]2OCC` | -3.485% |
| `CNc1nc2c(s1)C(c1c(Cl)cccc1Cl)CC(=O)N2` (stereo not shown) | 6.201% |
| `CN(C)C(=O)N1CCC2(CC1)CCN(c1ncccn1)C2.O=C(O)C(F)(F)F` | 3.07% |
| `CN(C)C(=O)c1cnc2n1CCN(Cc1ccccc1)C2.O=C(O)C(F)(F)F` | -7.266% |
| `[H][C@@]12CS(=O)(=O)C[C@]1([H])N(Cc1ccsc1)CCN2C(=O)C1CCC1` | 10.91% |
| `[H][C@@]12CCN(C(=O)c3ccno3)[C@]1([H])CCC(=O)N2Cc1csc(C)n1` | 10.44% |
| `CCOC(=O)NC(CNC(=O)c1ccccn1)CC(C)C` (stereo not shown) | 4.614% |
| `COc1ccc(F)cc1C(=O)N1CCCC(n2nc(C)nc2C)C1` (stereo not shown) | 0% |
| `CC(C)(C)c1nnc(CN2CCN(CC(O)c3ccccc3)CC2)o1` (stereo not shown) | 3.372% |
| `Clc1cc(CN2CCCCC2Cn2cncn2)c2ncccc2c1` (stereo not shown) | -10.63% |
| `O=C(O)C(F)(F)F.[H][C@@]12COC[C@]1(CNC(=O)C1CCC1)CN(Cc1cccc(C)c1)C2` | 2.869% |
| `Cc1nn(C)c(N(C)C)c1CNCc1ccccc1Cn1cncn1` | -11.22% |
| `[H][C@@]12CCN(S(=O)(=O)CC)[C@]1([H])CC[C@H](c1nnc(C)o1)O2` | 2.02% |
| `Cc1nnc(NC(=O)CN(C)C2CCCN(c3cccnn3)C2)s1` (stereo not shown) | 2.59% |
| `O=C(O)C1CN(c2cccc(F)c2)CCO1` (stereo not shown) | 9.816% |
| `CCOc1cc([C@@H]2N[C@H](c3nccs3)Cc3ccsc32)ccc1OC` | 2.153% |
| `CCC(=O)N1CCc2[nH]cnc2C12CCN(C(=O)CCS(C)(=O)=O)CC2` | 3.135% |

Repeated from the top, 9 entries:

| compound | percent effect |
|---|---|
| `CN1CCC(Cc2cnc(CNC(=O)Cc3cccc(F)c3)cn2)CC1` | 4.427% |
| `O=C(NCCc1ccc(Cl)cc1)c1coc(CN2CCOCC2)c1` | -30.12% |
| `CCOC1COC2(CCN(Cc3ccco3)CC2)C1.O=C(O)C(F)(F)F` (stereo not shown) | 4.962% |
| `Cc1ccc(C)c(S(=O)(=O)CCNC2CCc3ncnn3C2)c1` (stereo not shown) | -8.71% |
| `CN1CCc2c(C#N)c(NCCCO)n3cnnc3c2C1` | -4.087% |
| `COc1ccccc1CN1CC[C@]2(C[C@@H](OC)CO2)C1.O=C(O)C(F)(F)F` | -25.19% & -20.48% |
| `COc1ccccc1-c1nccnc1C1CCN(C(C)=O)CC1` | 8.861% |
| `COc1ccc(N(c2ccc(C)cc2)c2ccc(C(=O)O)s2)cc1` | 14.64% |
| `CC(NC(=O)N(C)Cc1ccc(Cl)s1)c1ccccn1` (stereo not shown) | -10.5% |